Measurements as given in patent publication US4485101 (dated 1984).
Square brackets hold non-standard residues; d marks the D form. Phe(4-Cl) = N[C@@H](Cc1ccc(Cl)cc1)C(=O)O

Assay: general procedure: Boc solid-phase peptide synthesis; benzhydrylamine polystyrene resin
Settings: whole synthesis, scale 0.50 mmol

**Q.** Which isolated mass does the source give for “Ac-CKN[Phe(4-Cl)]F[dW]KTFTSC-NH2 (cysteine pairing not given here)” here?
**A.** Its isolated mass is 25 mg.
